In the assay the target is polynucleotide kinase 3'-phosphatase (PNKP), endogenous (human (endogenous in AGS, HEK-293, SH-SY5Y)) (UniProt Q96T60). Nature of the assay: affinity purification with mass spectrometry; large-scale IP from AGS nuclear extract (100 mg, benzonase treated) with anti-PNKP antibody-conjugated agarose beads, mouse IgG as control; washed with TBS (200 mM NaCl, 1 mM EDTA, 1% Triton X-100, 10% glycerol); stepwise elution with 300, 400 and 500 mM NaCl; 2D gel and MALDI-TOF-TOF MS.

The chains behind the UniProt entries cited, without tags or fusion partners.
UniProt P54252: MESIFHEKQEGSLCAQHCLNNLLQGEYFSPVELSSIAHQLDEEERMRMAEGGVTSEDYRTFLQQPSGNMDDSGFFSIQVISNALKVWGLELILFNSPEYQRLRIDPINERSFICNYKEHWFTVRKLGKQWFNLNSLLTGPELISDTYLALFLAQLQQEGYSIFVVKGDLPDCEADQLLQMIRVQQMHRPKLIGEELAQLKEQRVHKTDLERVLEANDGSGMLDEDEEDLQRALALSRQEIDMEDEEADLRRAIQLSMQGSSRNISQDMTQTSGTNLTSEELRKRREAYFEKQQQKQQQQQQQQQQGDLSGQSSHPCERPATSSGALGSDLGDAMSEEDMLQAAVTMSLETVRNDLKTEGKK

No constants are given. Whether binding was seen depends on the method and setting. Binding seen in cells or lysates may run through a third protein. These calls come from enrichment with a bait or labelling near it, and not all partners need be listed.

For the substance “Ataxin-3 (ATXN3), endogenous (from UniProt P54252 1-361)”, the binding result is listed as “binds”.

(Values after publication PMC4310589.)
